Data on 1 compound can be found in article PMC5196488 (International Journal for Parasitology: Drugs and Drug …, 2016).

The assay deals with T1, S7.1R (Dj-S7.1R) (Dugesia japonica, UniProt O15969).
T1 sequence (O15969 1-478): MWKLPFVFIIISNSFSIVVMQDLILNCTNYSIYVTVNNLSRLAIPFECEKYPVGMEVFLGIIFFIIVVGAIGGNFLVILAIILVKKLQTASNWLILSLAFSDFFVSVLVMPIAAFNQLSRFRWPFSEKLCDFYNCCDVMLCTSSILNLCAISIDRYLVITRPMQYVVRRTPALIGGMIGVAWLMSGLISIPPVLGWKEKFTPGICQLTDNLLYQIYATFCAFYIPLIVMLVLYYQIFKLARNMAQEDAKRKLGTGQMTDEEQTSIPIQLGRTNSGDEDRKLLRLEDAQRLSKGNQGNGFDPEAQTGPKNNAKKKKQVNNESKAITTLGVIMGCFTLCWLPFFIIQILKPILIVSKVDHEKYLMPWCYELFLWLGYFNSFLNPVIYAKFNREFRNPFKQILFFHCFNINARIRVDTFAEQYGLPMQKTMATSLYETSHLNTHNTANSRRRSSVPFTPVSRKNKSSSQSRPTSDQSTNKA
It is filed as cell-based.

SMILES strings stand for the structures.

Broadly, the IC50 is the concentration that inhibits the measured activity by half. A lower IC50 goes with higher potency. In the case of `CN1CCC(=C2c3ccccc3C=Cc3ccccc32)CC1` [cyproheptadine], the IC50 turned out to be 4.3 ± 0.6 µM.
